# Source: PubChem BioAssay AID248 (DTP/NCI, 2004)
# The list is a part of this screen's results and no random one: it is rich in T/C values a quarter to a half above the control, in often repeated tests (any T/C) and in doses without a T/C. Further doses and runs are listed elsewhere. T/C: endpoint of the treated group in % of that of the vehicle group. Some doses have a count of surviving animals in place of a T/C: the source holds a T/C of zero for them, seemingly a mark for toxic or unscored doses. Some survivor counts are full or nearly so, which does not show that the dose was tolerated: the source hardly ever lists a survival T/C far under the control, and the zero likely stands for such cases as well. Counts of survivors are from the toxicity check (mostly the fifth day) where no day follows; animals may have died later. Schedules are NCI's codes, read here as Q, the interval in days (D) or hours (H), X, the number of doses. For survival time, the PubChem record calls one and a half times the control and up active, and a quarter to a half above the control has no call in these data; cut-offs in other NCI protocols can differ. Marks such as (2×) count equal records among those shown. Some doses were run more than once; the results are listed from low to high.
# System: L1210 leukemia ip in BDF1 mice, survival T/C
# Test: NCI In Vivo Anticancer Drug Screen. Data for tumor model L1210 Leukemia (intraperitoneal) in B6D2F1 (BDF1) mice
# Details: T/C endpoint: median survival time, vehicle: saline, higher T/C = longer survival
smiles,measurement,setting,value
Nc1ncn(C2OC(CO)C(O)C2O)c(=O)n1 (stereo not drawn),T/C,"dose: 5.0 mg/kg/injection, schedule: Q04DX003 (ip), evaluated on day 5","137, 161, 168, 170 (2×), 175 % of control"
same,T/C,"dose: 5.0 mg/kg/injection, schedule: Q04DX003 (ip), evaluated on day 8",144 % of control
same,T/C,"dose: 5.0 mg/kg/injection, schedule: Q04DX003 (ip), evaluated on day 30",166 and 168 % of control
same,T/C,"dose: 5.0 mg/kg/injection, schedule: Q04DX003 (ip), evaluated on day 35",166 % of control
same,T/C,"dose: 5.0 mg/kg/injection, schedule: Q04DX003 (ip), evaluated on day 40",177 % of control
same,T/C,"dose: 5.0 mg/kg/injection, schedule: Q04DX003 (ip), evaluated on day 60",140 % of control
same,T/C,"dose: 6.0 mg/kg/injection, schedule: Q04DX003 (ip), evaluated on day 5",170 % of control
same,T/C,"dose: 6.0 mg/kg/injection, schedule: Q04DX003 (ip), evaluated on day 33",155 and 170 % of control
same,T/C,"dose: 6.0 mg/kg/injection, schedule: Q04DX003 (ip), evaluated on day 40",163 % of control
same,T/C,"dose: 8.4 mg/kg/injection, schedule: Q04DX003 (ip), evaluated on day 5","149, 219, 225 % of control"
same,T/C,"dose: 8.4 mg/kg/injection, schedule: Q04DX003 (ip), evaluated on day 30",218 and 227 % of control
same,T/C,"dose: 8.4 mg/kg/injection, schedule: Q04DX003 (ip), evaluated on day 60",155 % of control
same,T/C,"dose: 10.0 mg/kg/injection, schedule: Q01DX001 (ip), evaluated on day 5",130 % of control
same,T/C,"dose: 10.0 mg/kg/injection, schedule: Q01DX001 (ip), evaluated on day 40",133 % of control
same,T/C,"dose: 10.0 mg/kg/injection, schedule: Q04DX003 (ip), evaluated on day 5","229, 230, 231, 260 % of control"
same,T/C,"dose: 10.0 mg/kg/injection, schedule: Q04DX003 (ip), evaluated on day 8",160 % of control
same,T/C,"dose: 10.0 mg/kg/injection, schedule: Q04DX003 (ip), evaluated on day 35",222 % of control
same,T/C,"dose: 10.0 mg/kg/injection, schedule: Q04DX003 (ip), evaluated on day 40",222 and 238 % of control
same,survivor count,"dose: 12.0 mg/kg/injection, schedule: Q01DX009 (ip)",10 of 10
same,T/C,"dose: 14.0 mg/kg/injection, schedule: Q04DX003 (ip), evaluated on day 5","128, 185, 207 % of control"
same,T/C,"dose: 14.0 mg/kg/injection, schedule: Q04DX003 (ip), evaluated on day 30",181 and 211 % of control
same,T/C,"dose: 14.0 mg/kg/injection, schedule: Q04DX003 (ip), evaluated on day 60",130 % of control
same,T/C,"dose: 17.0 mg/kg/injection, schedule: Q04DX003 (ip), evaluated on day 5",138 % of control
same,T/C,"dose: 17.0 mg/kg/injection, schedule: Q04DX003 (ip), evaluated on day 40",131 % of control
same,T/C,"dose: 20.0 mg/kg/injection, schedule: Q01DX001 (ip), evaluated on day 5",141 % of control
same,T/C,"dose: 20.0 mg/kg/injection, schedule: Q01DX001 (ip), evaluated on day 40",144 % of control
same,T/C,"dose: 20.0 mg/kg/injection, schedule: Q04DX003 (ip), evaluated on day 5","237, 252, 270 % of control"
same,T/C,"dose: 20.0 mg/kg/injection, schedule: Q04DX003 (ip), evaluated on day 8",140 % of control
same,T/C,"dose: 20.0 mg/kg/injection, schedule: Q04DX003 (ip), evaluated on day 35",250 % of control
same,T/C,"dose: 20.0 mg/kg/injection, schedule: Q04DX003 (ip), evaluated on day 40",244 % of control
same,T/C,"dose: 23.0 mg/kg/injection, schedule: Q04DX003 (ip), evaluated on day 5","98, 103, 107 % of control"
same,T/C,"dose: 23.0 mg/kg/injection, schedule: Q04DX003 (ip), evaluated on day 30",100 % of control (2×)
same,T/C,"dose: 23.0 mg/kg/injection, schedule: Q04DX003 (ip), evaluated on day 60",110 % of control
same,T/C,"dose: 24.0 mg/kg/injection, schedule: Q04DX003 (ip)",130 % of control
same,survivor count,"dose: 28.0 mg/kg/injection, schedule: Q04DX003 (ip)",8 of 8
same,T/C,"dose: 39.0 mg/kg/injection, schedule: Q04DX003 (ip), evaluated on day 5",78 and 148 % of control
same,T/C,"dose: 39.0 mg/kg/injection, schedule: Q04DX003 (ip), evaluated on day 30",143 % of control
same,survivor count,"dose: 39.0 mg/kg/injection, schedule: Q04DX003 (ip)",8 of 8
same,T/C,"dose: 40.0 mg/kg/injection, schedule: Q04DX003 (ip), evaluated on day 5","102, 120, 186 % of control"
same,T/C,"dose: 40.0 mg/kg/injection, schedule: Q04DX003 (ip), evaluated on day 8",136 % of control
same,T/C,"dose: 40.0 mg/kg/injection, schedule: Q04DX003 (ip), evaluated on day 35",116 % of control
same,T/C,"dose: 40.0 mg/kg/injection, schedule: Q04DX003 (ip), evaluated on day 40",105 % of control
same,survivor count,"dose: 47.0 mg/kg/injection, schedule: Q04DX003 (ip)",8 of 8
